This note sets out measurements from article PMC3542071.

In one experiment the target is T1, myc-Gmc2 (budding yeast) (UniProt Q06201).
T1 sequence: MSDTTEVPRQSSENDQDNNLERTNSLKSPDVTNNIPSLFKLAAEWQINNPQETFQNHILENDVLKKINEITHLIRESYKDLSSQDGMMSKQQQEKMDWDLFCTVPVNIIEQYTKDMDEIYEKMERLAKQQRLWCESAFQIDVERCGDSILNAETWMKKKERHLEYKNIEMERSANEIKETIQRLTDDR
The experiment in a line: co-IP; native whole cell extracts of meiotic cells; lysis buffer 200 mM NaCl, 10 mM EDTA, 0.05% Igepal CA-630, 50 mM Tris-HCl pH 8.0; anti-FLAG or anti-myc antibody, protein G Dynabeads, Western blotting; in parallel immunoprecipitates treated with Benzonase (co-precipitation resistant to nuclease). (In western blotting, separated proteins are transferred to a membrane and probed.)

The target of experiment [1] is T2, Ecm11 fused to the Gal4 DNA-binding domain (DBD) (budding yeast) (UniProt Q04110).
T2 sequence: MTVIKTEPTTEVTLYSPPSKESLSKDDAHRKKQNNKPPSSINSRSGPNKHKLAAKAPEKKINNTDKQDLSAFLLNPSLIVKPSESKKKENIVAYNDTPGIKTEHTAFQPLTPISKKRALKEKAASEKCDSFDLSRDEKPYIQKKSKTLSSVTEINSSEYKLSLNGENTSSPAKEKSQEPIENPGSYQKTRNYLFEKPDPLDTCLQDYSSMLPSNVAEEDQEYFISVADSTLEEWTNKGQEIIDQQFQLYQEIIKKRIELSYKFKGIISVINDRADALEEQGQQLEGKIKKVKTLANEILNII
The experiment in a line: two-hybrid; Gal4 DBD fusion (TRP1 plasmid) and Gal4 AD fusion (LEU2 plasmid) in yeast; growth on medium lacking adenine (GAL4-ADE2 reporter).

Experiment [2] concerns the target T3, Ecm11-FLAG (budding yeast) (UniProt Q04110).
T3 sequence: T2 sequence
The experiment in a line: co-IP; native whole cell extracts of meiotic cells; lysis buffer 200 mM NaCl, 10 mM EDTA, 0.05% Igepal CA-630, 50 mM Tris-HCl pH 8.0; anti-FLAG or anti-myc antibody, protein G Dynabeads, Western blotting; in parallel immunoprecipitates treated with Benzonase (co-precipitation resistant to nuclease).

Results are given in words; binding and its absence hold for the method and conditions named. For part of these data: Binding seen in cells or lysates may run through a third protein. Some entries that bind do so weakly or less than the wild type. Tags and fused reporters may be left off the sequences shown.

B1: Ecm11-FLAG (protein, UniProt Q04110 1-302)
chain: T2 sequence
Consider B1, for which the binding result in the experiment with myc-Gmc2 (budding yeast) is on record as “binds”.

B2: Gmc2 fused to the Gal4 transcription activation domain (AD) (protein, UniProt Q06201 1-188)
chain: T1 sequence
With B2, the binding entry in experiment [1] is given as “binds”.

B3: myc-Gmc2 (protein, UniProt Q06201 1-188)
chain: T1 sequence
Consider B3, for which the binding result in experiment [2] is given as “binds”.
